# From the supplement of paper PMC8728848
# The list shows a part of the results.
# B1: Blon2355mut (Bifidobacterium longum) (protein)
# chain: MVQEPTLEWHVIPEPTNVEPLVGTCSLPLSGTVVEQRGADDAEAVFARQLVDDIKRVCGGRWQVASGEVQREVTLRTSPSLDDWSYVLEVSPDGVVITGSGFEGVRDGVQTLRQIIRQIGLTIPCMVIRDRPAFSTRGYYLDVTRGRVPSMAWLKSWVDRLCFYKYNQFQLYIEHTFQFNGLSEVWRGADPLTSSDILELDSYCAARGIELVPSVSTFGHHYTALRTRQLRDLGEFPEDADRPFSLIERMTHHTLNITDERSYEFSTSLIDELMPLFRSRKFNICANETFDLGKGRSKQESAKRGVGAMYADFVERLCRHVDDRGHDVMVWADVALEHPEIIDTLPKNITWLNWQYEPNVDDGTTAALADAGATQMVCPAVWCWNALIPRIDDAWNNITRMARHGRAHDVSGMLVTDWGDFGHVNDPRMSVPGMIFGAQQSWNPDAELSEVDMLSRISTIEYGDHTGSVVGALRGASAKGGFSWSDLVTYLELDDGRGGCNTEIVRVMGCLEAYRNDLPQSGQARLADARVSMLRTLRDSILAGRELNGKLDDAAKDITQLLRVAGDPSSAAVWSLAIDGQRLLNRVGLALLAAHGVVRQDEAGIDAAKLADELECWTEQYSRLWHEVSRQSELARIQHVVWRAADVLRSI
# Experiments:
# Test in all cases: glycan array binding signal (z-score within array); higher = stronger binding
# Conditions in all cases: glycan notation: IUPAC condensed, linker removed
# [1] = molecular target: Neu5Ac(a2-8)Neu5Ac
# In short: (§1)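 The binding signal is a Z-score computed within each array and averaged over linkers. Arrays of the same protein sequence at different concentrations or buffers were also averaged together. Data originate from 3228 arrays in the Consortium for Functional Glycomics database, kept only where the protein sequence was available.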
# [2] = molecular target: Neu5Ac(a2-8)Neu5Ac(a2-3)Gal(b1-3)GalNAc(b1-4)[Neu5Ac(a2-3)]Gal(b1-4)Glc
# In short: as §1
# [3] = molecular target: Neu5Ac(a2-8)Neu5Ac(a2-3)Gal(b1-3)GalNAc(b1-4)[Neu5Ac(a2-8)Neu5Ac(a2-3)]Gal(b1-4)Glc
# In short: as §1
# [4] = molecular target: Neu5Ac(a2-8)Neu5Ac(a2-3)Gal(b1-4)Glc
# In short: as §1
# [5] = molecular target: Neu5Ac(a2-8)Neu5Ac(a2-3)Gal(b1-4)GlcNAc
# In short: as §1
# [6] = molecular target: Neu5Ac(a2-8)Neu5Ac(a2-3)[Gal(b1-3)GalNAc(b1-4)]Gal(b1-4)Glc
# In short: as §1
# [7] = molecular target: Neu5Ac(a2-8)Neu5Ac(a2-3)[GalNAc(b1-4)]Gal(b1-4)Glc
# In short: as §1
# [8] = molecular target: Neu5Ac(a2-8)Neu5Ac(a2-8)Neu5Ac
# In short: as §1
# [9] = molecular target: Neu5Ac(a2-8)Neu5Ac(a2-8)Neu5Ac(a2-3)Gal(b1-4)Glc
# In short: as §1
# [10] = molecular target: Neu5Ac(a2-8)Neu5Ac(a2-8)Neu5Ac(a2-3)[Gal(b1-3)GalNAc(b1-4)]Gal(b1-4)Glc
# In short: as §1
# [11] = molecular target: Neu5Ac(a2-8)Neu5Ac(a2-8)Neu5Ac(a2-3)[GalNAc(b1-4)]Gal(b1-4)Glc
# In short: as §1
# [12] = molecular target: Neu5Ac(a2-8)Neu5Ac(a2-8)Neu5Ac(a2-8)Neu5Ac(a2-3)[GalNAc(b1-4)]Gal(b1-4)Glc
# In short: as §1
# [13] = molecular target: Neu5Ac(a2-8)Neu5Gc(a2-3)Gal(b1-4)GlcNAc
# In short: as §1
# [14] = molecular target: Neu5Ac(b2-6)Gal(b1-4)GlcNAc
# In short: as §1
# [15] = molecular target: Neu5Ac(b2-6)GalNAc
# In short: as §1
# [16] = molecular target: Neu5Ac9Ac(a2-3)Gal(b1-4)GlcNAc
# In short: as §1
# [17] = molecular target: Neu5Ac9Ac(a2-6)Gal(b1-4)GlcNAc
# In short: as §1
# [18] = molecular target: Neu5Gc(a2-3)Gal(b1-3)GlcNAc
# In short: as §1
# [19] = molecular target: Neu5Gc(a2-3)Gal(b1-3)[Fuc(a1-4)]GlcNAc
# In short: as §1
# [20] = molecular target: Neu5Gc(a2-3)Gal(b1-4)Glc
# In short: as §1
# [21] = molecular target: Neu5Gc(a2-3)Gal(b1-4)GlcNAc
# In short: as §1
# [22] = molecular target: Neu5Gc(a2-3)Gal(b1-4)GlcNAc(b1-3)Gal(b1-4)GlcNAc(b1-2)Man(a1-3)[Neu5Gc(a2-3)Gal(b1-4)GlcNAc(b1-3)Gal(b1-4)GlcNAc(b1-2)Man(a1-6)]Man(b1-4)GlcNAc(b1-4)GlcNAc
# In short: as §1
# [23] = molecular target: Neu5Gc(a2-3)Gal(b1-4)[Fuc(a1-3)]GlcNAc
# In short: as §1
# [24] = molecular target: Neu5Gc(a2-6)Gal(b1-4)GlcNAc
# In short: as §1
# [25] = molecular target: Neu5Gc(a2-6)GalNAc
# In short: as §1
# [26] = molecular target: Neu5Gc(a2-8)Neu5Ac(a2-3)Gal(b1-4)GlcNAc
# In short: as §1
# [27] = molecular target: Neu5Gc(a2-8)Neu5Gc(a2-3)Gal(b1-4)GlcNAc
# In short: as §1
# [28] = molecular target: Neu5Gc(a2-8)Neu5Gc(a2-3)Gal(b1-4)GlcNAc(b1-3)Gal(b1-4)GlcNAc
# In short: as §1
# [29] = molecular target: Neu5Gc(a2-8)Neu5Gc(a2-6)Gal(b1-4)GlcNAc
# In short: as §1
# [30] = molecular target: Neu5Gc(b2-6)Gal(b1-4)GlcNAc
# In short: as §1
binder,measurement,setting,value
B1,glycan array binding signal (z-score),[1],0.085
same,glycan array binding signal (z-score),[2],0.706
same,glycan array binding signal (z-score),[3],1.09
same,glycan array binding signal (z-score),[4],-1.14
same,glycan array binding signal (z-score),[5],-0.342
same,glycan array binding signal (z-score),[6],-1.1
same,glycan array binding signal (z-score),[7],2.53
same,glycan array binding signal (z-score),[8],-0.1
same,glycan array binding signal (z-score),[9],-0.733
same,glycan array binding signal (z-score),[10],0.635
same,glycan array binding signal (z-score),[11],-0.7
same,glycan array binding signal (z-score),[12],-0.076
same,glycan array binding signal (z-score),[13],-0.455
same,glycan array binding signal (z-score),[14],-0.652
same,glycan array binding signal (z-score),[15],-1.2
same,glycan array binding signal (z-score),[16],-0.722
same,glycan array binding signal (z-score),[17],3.4
same,glycan array binding signal (z-score),[18],-0.793
same,glycan array binding signal (z-score),[19],-0.061
same,glycan array binding signal (z-score),[20],-0.458
same,glycan array binding signal (z-score),[21],-0.138
same,glycan array binding signal (z-score),[22],0.496
same,glycan array binding signal (z-score),[23],-0.951
same,glycan array binding signal (z-score),[24],-0.025
same,glycan array binding signal (z-score),[25],-0.59
same,glycan array binding signal (z-score),[26],-0.298
same,glycan array binding signal (z-score),[27],-0.974
same,glycan array binding signal (z-score),[28],-0.744
same,glycan array binding signal (z-score),[29],-0.316
same,glycan array binding signal (z-score),[30],-0.829
